Measurements reported in PubChem BioAssay AID1259282 (Sanger Institute, 2017)

- Aim: 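Kinases whose loss reduces viability on their own or with anchor drugs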 (primary screen)
- Cell system: DIFI human colorectal cancer cell line
- Reagent: siRNA pool against human genes
- Challenge: anchor drug at a mild dose (BYL719 1 µM, cetuximab 5 µg/ml, trametinib 10 nM) or DMSO vehicle; exposure time not given
- Read-out: 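Viability relative to non-targeting pool wells, replicate mean, in DMSO or low-dose BYL719, cetuximab or trametinib; robust z-score without drug; synergy score per drug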
- Direction: robust z-score, knock-down alone: higher = more viable cells than typical knock-down; viability, knock-down alone: higher = more viable cells; synergy score with trametinib and synergy score with cetuximab and synergy score with BYL719: higher = stronger combined killing with drug
- Rule for the call: 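a knock-down is called essential if its DMSO robust z-score is under -3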
- Calls: active = essential (knock-down alone, z below -3); inactive = not essential
Here is one part, drawn at random, of 794 reagents. 11 of all reagents (1.4%) count as active. 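Calls flag knock-downs that lower viability without drug; drug synergy appears only in the synergy scores; exposure time not stated.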 Viability is capped at 1. Not given: the amount of reagent, the time to read-out.

gene knocked down	robust z-score, knock-down alone	viability, knock-down alone (fraction of control)	synergy score with trametinib	synergy score with cetuximab	synergy score with BYL719	outcome
NEK4 (NIMA related kinase 4)	0.296	0.939	0.0466	-0.0454	-0.151	inactive
IRAK1 (interleukin 1 receptor associated kinase 1)	-0.439	0.832	0.113	0.107	-0.0358	inactive
RAF1 (Raf-1 proto-oncogene, serine/threonine kinase)	-0.362	0.844	0.283	0.136	0.0957	inactive
CLK3 (CDC like kinase 3)	0.536	0.974	0.0406	0.0708	-0.255	inactive
MAP2K7 (mitogen-activated protein kinase kinase 7)	0.635	0.988	0.0937	-0.0595	-0.135	inactive
AURKA (aurora kinase A)	-1.87	0.625	-0.0579	-0.0653	-0.121	inactive
PFKFB4 (6-phosphofructo-2-kinase/fructose-2,6-biphosphatase 4)	0.715	1	0.0969	0.0332	-0.0289	inactive
DGKI (diacylglycerol kinase iota)	0.715	1	0.0836	0.00404	-0.23	inactive
BCKDK (branched chain keto acid dehydrogenase kinase)	0.715	1	-0.0876	-0.189	-0.362	inactive
ERN2 (endoplasmic reticulum to nucleus signaling 2)	0.715	1	-0.21	-0.0074	-0.208	inactive
CAMKK2 (calcium/calmodulin dependent protein kinase kinase 2)	0.715	1	0.0278	0.117	-0.169	inactive
LMTK2 (lemur tail kinase 2)	0.121	0.914	0.0648	0.0177	-0.124	inactive
CLK2 (CDC like kinase 2)	0.715	1	-0.0549	-0.118	-0.0998	inactive
WEE1 (WEE1 G2 checkpoint kinase)	-2.52	0.53	-0.00958	-0.00592	-0.00711	inactive
PRKAR1A	0.682	0.995	-0.0179	0.00497	0.0483	inactive
AK2 (adenylate kinase 2)	0.715	1	0.12	0.139	-0.301	inactive
STK17B (serine/threonine kinase 17b)	0.715	1	0.0535	0.00377	-0.201	inactive
PKDCC (protein kinase domain containing, cytoplasmic)	0.53	0.973	0.172	0.169	0.0499	inactive
TGFBR3 (transforming growth factor beta receptor 3)	0.715	1	0.0368	0.0358	-0.322	inactive
NF1 (neurofibromin 1)	0.715	1	-0.0369	-0.0532	-0.292	inactive
KMT2B (lysine methyltransferase 2B)	-1.02	0.747	0.036	-0.0531	-0.0386	inactive
PLK1 (polo like kinase 1)	-2.96	0.466	0.0223	0.00312	-0.0273	inactive
TP53RK (TP53 regulating kinase)	-0.388	0.84	0.119	0.0118	0.0793	inactive
GUCY2F (guanylate cyclase 2F, retinal)	0.715	1	0.0477	0.115	0.12	inactive
RET (ret proto-oncogene)	-0.258	0.859	0.119	0.0236	-0.115	inactive
DLG4 (discs large MAGUK scaffold protein 4)	0.715	1	0.144	0.141	-0.12	inactive
MAPKAPK2 (MAPK activated protein kinase 2)	0.715	1	-0.0453	0.0171	-0.279	inactive
TEX14 (testis expressed 14, intercellular bridge forming factor)	0.715	1	0.0151	-0.0639	-0.334	inactive
CALM3 (calmodulin 3)	0.715	1	-0.0531	-0.0238	-0.212	inactive
NEK9 (NIMA related kinase 9)	0.0493	0.903	0.13	0.00416	-0.0323	inactive
ALK (ALK receptor tyrosine kinase)	-1.27	0.712	-0.0108	0.00206	-0.0563	inactive
PXK (PX domain containing serine/threonine kinase like)	-0.447	0.831	-0.0219	-0.0777	0.0538	inactive

Next part (2 carried over from the part before).
gene knocked down	robust z-score, knock-down alone	viability, knock-down alone (fraction of control)	synergy score with trametinib	synergy score with cetuximab	synergy score with BYL719	outcome
ALK (ALK receptor tyrosine kinase)	-1.27	0.712	-0.0108	0.00206	-0.0563	inactive
PXK (PX domain containing serine/threonine kinase like)	-0.447	0.831	-0.0219	-0.0777	0.0538	inactive
PGK1 (phosphoglycerate kinase 1)	0.176	0.922	0.104	0.0515	-0.265	inactive
TPD52L3 (TPD52 like 3)	0.396	0.954	-0.144	-0.136	-0.391	inactive
CKS2 (CDC28 protein kinase regulatory subunit 2)	0.715	1	-0.0754	-0.047	-0.276	inactive
MAPK8 (mitogen-activated protein kinase 8)	0.715	1	-0.0979	0.0492	-0.203	inactive
DMPK (DM1 protein kinase)	0.0776	0.907	-0.0765	-0.00984	-0.0583	inactive
PI4KB (phosphatidylinositol 4-kinase beta)	0.715	1	-0.0416	-0.0283	-0.243	inactive
ROS1 (ROS proto-oncogene 1, receptor tyrosine kinase)	0.154	0.918	-0.00797	-0.0246	-0.037	inactive
PSTK (phosphoseryl-tRNA kinase)	0.715	1	0.0337	-0.0439	-0.196	inactive
SPHK1 (sphingosine kinase 1)	-1.27	0.711	0.113	0.0777	0.0467	inactive
SGK2 (serum/glucocorticoid regulated kinase 2)	0.539	0.974	0.0238	0.0325	-0.136	inactive
CSNK1G2 (casein kinase 1 gamma 2)	0.715	1	0.0088	0.00595	-0.139	inactive
BRSK1 (BR serine/threonine kinase 1)	0.715	1	0.0131	0.0635	-0.0776	inactive
SIK2 (salt inducible kinase 2)	0.538	0.974	-0.16	-0.228	-0.0596	inactive
AURKB (aurora kinase B)	-0.913	0.764	0.101	-0.0851	0.0102	inactive
PDK1 (pyruvate dehydrogenase kinase 1)	0.55	0.976	0.0731	-0.0556	-0.11	inactive
GUCY2EP (guanylate cyclase 2E, pseudogene)	0.715	1	0.0988	0.108	0.0979	inactive
NEK1 (NIMA related kinase 1)	0.715	1	0.161	0.0781	-0.2	inactive
PRKAG1 (protein kinase AMP-activated non-catalytic subunit gamma 1)	-0.189	0.869	-0.00927	-0.0464	-0.173	inactive
